Results published in PMC9590400.

Target: T1, Coiled-coil alpha-helical rod protein 1 (HCR), endogenous in HeLa (human (endogenous in HeLa)) (UniProt Q8TD31)
T1 sequence: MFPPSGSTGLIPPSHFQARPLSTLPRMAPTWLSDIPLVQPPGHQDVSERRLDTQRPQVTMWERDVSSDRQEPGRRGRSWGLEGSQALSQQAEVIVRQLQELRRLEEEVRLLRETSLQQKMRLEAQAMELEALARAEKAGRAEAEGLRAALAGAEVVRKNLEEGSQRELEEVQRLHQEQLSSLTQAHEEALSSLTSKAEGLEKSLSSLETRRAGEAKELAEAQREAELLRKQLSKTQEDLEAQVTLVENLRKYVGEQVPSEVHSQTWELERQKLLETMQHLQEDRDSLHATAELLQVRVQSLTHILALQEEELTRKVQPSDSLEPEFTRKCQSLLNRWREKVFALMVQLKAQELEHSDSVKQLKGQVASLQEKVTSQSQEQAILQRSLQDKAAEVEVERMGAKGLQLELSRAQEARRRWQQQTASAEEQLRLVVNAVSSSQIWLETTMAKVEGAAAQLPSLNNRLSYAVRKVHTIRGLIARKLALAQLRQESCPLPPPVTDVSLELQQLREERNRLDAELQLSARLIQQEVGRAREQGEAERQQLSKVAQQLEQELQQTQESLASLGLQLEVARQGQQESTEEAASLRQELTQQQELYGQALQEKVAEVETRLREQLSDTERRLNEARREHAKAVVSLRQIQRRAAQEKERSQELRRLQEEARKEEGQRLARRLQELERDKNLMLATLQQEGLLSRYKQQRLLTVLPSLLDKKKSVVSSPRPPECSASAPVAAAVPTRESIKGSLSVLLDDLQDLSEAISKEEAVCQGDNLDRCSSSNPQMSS
Assay: co-IP; endogenous proteins in HeLa cell lysates (50 mM Tris, 150 mM NaCl, 0.1% NP40); antibody to one partner or control rabbit IgG, protein A and protein G beads, 4 °C; western blot

dynein light chain 8 (LC8), endogenous in HeLa (human (endogenous in HeLa))
binding: no binding

These are yes or no findings as the source states them, for the method shown. Binding seen in cells or lysates may run through a third protein.
